Experimental data reported in article PMC1939850.
Results are given in words; binding and its absence hold for the method and conditions named. In cells and extracts the contact can be indirect. Some binding calls cover weakened binding; strength is not graded here.

Sequences of proteins named here, by UniProt entry; tags and fusion partners are left off. Residues count along the entry.
UniProt Q14114, residues 33-963: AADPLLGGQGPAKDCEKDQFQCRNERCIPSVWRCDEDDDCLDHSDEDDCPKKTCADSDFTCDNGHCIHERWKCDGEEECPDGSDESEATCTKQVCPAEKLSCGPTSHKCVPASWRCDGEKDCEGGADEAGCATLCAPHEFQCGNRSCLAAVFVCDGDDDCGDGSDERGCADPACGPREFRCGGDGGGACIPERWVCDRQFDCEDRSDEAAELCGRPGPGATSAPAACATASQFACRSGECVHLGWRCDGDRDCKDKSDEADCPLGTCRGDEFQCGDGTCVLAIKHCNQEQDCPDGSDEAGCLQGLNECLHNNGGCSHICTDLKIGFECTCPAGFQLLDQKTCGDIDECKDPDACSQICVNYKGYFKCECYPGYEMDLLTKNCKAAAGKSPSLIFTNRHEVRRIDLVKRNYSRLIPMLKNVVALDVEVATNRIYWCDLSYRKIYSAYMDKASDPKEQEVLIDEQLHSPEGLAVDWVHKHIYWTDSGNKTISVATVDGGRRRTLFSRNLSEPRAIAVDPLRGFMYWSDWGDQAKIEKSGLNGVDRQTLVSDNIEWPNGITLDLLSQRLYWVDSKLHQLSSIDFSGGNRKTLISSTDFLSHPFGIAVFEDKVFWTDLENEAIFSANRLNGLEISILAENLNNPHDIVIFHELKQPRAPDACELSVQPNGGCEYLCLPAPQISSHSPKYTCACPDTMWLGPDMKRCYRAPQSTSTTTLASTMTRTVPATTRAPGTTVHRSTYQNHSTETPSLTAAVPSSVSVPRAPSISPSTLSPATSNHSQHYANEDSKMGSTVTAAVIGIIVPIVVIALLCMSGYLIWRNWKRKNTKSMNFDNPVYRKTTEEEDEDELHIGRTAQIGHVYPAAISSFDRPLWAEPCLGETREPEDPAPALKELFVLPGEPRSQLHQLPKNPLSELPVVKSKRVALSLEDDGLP

How the values were obtained:
APP695-Myc (human) [1] = biological target: APP695-Myc (human) (UniProt P05067); test: condition: only independent lysates of singly expressing cells combined after lysis; co-IP; independent HUNT lysates from ApoER2-HA-expressing N2a cells and from APP695-Myc-transfected parental N2a cells combined after lysis, then immunoprecipitated with anti-Myc and blotted with anti-HA
APP695-Myc (human) [2] = biological target: APP695-Myc (human) (UniProt P05067); test: co-IP; N2a cells stably expressing HA-tagged ApoER2 or ApoER2-Tless, transiently transfected with APP695-Myc; lysed in Buffer HUNT (20 mM Tris-HCl pH 8.0, 100 mM NaCl, 1 mM EDTA, 1% NP40, 0.5% TX-100, 50 mM NaF); immunoprecipitated with anti-Myc (9E10) and protein A/G agarose at 4°C, blotted with anti-HA

binding (APP695-Myc (human) [1]): no binding
binding (APP695-Myc (human) [2]): binds
Substance: ApoER2-HA (from UniProt Q14114 33-963) (receptor)
